In the supplement of paper PMC10849652:
The list shows a part of the results.

Chains of the proteins cited; added tags and fusions are not shown. Lines headed by an entry give the natural chain unless they say otherwise; changes in a name come on top.
UniProt Q8NCW5: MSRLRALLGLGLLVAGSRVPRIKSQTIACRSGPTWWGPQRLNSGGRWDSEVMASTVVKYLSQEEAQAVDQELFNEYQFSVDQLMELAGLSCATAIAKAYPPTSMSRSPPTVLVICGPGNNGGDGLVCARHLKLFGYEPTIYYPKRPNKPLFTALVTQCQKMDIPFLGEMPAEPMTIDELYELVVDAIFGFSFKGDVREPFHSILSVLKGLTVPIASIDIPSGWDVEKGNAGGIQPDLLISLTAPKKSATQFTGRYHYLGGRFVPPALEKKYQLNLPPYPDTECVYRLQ
UniProt Q86XI2: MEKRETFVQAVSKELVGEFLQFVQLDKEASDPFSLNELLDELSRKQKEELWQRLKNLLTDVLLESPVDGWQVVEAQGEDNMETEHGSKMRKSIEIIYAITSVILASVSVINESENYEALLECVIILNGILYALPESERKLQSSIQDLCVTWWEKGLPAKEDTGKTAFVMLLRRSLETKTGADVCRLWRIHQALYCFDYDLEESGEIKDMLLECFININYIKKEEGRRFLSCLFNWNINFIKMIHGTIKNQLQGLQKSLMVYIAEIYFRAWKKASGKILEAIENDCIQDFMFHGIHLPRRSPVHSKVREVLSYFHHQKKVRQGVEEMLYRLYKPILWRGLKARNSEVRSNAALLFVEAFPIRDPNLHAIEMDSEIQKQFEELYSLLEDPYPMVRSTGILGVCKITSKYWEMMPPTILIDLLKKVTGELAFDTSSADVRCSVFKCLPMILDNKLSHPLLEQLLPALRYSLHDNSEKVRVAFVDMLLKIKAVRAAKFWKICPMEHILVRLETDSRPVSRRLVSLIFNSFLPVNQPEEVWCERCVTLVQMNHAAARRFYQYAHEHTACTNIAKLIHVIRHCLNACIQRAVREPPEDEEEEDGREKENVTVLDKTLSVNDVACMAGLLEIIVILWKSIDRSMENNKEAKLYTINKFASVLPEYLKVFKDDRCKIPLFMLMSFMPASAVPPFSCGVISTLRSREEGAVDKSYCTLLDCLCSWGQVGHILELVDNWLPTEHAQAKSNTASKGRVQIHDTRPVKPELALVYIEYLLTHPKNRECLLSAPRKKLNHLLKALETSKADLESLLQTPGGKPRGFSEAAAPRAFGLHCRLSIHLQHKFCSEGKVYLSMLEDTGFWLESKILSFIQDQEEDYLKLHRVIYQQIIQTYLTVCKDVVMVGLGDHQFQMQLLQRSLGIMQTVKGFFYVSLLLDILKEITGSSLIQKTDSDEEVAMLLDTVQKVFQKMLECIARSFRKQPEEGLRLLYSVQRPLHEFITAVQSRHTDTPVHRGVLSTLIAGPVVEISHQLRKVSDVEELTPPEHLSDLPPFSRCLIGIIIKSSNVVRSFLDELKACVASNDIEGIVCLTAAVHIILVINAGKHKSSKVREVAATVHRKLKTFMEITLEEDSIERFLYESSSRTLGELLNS
UniProt Q09161: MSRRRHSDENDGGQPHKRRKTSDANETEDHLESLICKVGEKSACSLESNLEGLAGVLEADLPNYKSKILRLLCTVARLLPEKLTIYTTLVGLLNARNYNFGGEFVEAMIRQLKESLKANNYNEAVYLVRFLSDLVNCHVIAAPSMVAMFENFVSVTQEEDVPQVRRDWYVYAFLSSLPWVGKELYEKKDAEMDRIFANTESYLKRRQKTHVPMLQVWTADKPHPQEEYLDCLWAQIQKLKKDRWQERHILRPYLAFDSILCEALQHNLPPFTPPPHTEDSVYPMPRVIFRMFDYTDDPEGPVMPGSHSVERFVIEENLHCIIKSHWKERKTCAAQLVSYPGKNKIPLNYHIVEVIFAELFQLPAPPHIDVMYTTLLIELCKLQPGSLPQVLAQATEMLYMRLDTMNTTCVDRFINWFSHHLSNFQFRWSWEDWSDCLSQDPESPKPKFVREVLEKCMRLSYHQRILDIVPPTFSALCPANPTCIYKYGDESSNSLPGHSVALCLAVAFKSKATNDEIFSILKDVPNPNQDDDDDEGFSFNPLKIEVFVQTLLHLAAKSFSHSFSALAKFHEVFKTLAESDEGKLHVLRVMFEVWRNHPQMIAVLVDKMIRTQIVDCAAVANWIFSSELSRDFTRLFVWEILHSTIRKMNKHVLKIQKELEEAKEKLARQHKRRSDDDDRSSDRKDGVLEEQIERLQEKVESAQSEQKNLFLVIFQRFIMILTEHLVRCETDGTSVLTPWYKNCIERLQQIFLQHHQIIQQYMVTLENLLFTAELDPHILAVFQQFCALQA
UniProt Q5VVJ2: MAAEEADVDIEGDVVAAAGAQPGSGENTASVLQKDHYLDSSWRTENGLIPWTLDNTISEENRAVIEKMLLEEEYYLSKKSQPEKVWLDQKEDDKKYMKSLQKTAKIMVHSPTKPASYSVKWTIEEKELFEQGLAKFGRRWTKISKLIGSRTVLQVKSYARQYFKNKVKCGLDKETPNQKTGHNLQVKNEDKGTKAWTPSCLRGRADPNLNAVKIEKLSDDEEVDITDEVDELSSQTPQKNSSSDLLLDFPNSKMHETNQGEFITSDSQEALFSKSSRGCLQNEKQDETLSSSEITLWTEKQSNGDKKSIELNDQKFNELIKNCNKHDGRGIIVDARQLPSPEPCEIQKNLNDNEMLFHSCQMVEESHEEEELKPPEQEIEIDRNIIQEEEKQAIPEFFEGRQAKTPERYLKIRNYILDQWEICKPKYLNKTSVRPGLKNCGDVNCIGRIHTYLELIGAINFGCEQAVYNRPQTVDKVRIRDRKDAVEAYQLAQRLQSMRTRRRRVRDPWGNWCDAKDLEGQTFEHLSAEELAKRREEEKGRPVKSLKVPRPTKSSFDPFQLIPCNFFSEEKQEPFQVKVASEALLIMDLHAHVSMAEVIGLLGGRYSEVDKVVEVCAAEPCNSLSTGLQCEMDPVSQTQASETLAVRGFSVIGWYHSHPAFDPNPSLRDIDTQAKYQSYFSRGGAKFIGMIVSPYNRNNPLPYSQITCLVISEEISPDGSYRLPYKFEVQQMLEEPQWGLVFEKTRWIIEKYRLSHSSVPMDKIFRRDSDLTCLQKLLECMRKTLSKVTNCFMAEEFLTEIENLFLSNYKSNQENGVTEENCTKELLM
UniProt Q9BSU3: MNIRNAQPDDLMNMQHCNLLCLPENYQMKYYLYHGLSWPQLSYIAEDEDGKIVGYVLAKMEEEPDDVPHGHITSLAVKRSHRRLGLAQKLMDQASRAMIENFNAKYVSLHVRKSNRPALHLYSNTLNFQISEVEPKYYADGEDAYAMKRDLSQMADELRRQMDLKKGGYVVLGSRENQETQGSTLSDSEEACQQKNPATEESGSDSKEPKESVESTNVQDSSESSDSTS
UniProt P55209: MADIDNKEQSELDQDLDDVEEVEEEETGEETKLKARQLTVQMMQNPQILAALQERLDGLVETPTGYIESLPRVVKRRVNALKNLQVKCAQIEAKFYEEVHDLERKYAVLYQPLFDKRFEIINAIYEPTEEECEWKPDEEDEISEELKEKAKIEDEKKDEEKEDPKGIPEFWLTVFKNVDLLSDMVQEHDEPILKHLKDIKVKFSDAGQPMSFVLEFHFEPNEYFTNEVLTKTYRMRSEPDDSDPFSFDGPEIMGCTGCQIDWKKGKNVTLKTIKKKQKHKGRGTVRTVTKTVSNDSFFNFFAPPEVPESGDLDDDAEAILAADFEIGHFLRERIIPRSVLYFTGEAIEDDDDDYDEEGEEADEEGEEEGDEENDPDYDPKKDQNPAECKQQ
UniProt Q9GZZ1: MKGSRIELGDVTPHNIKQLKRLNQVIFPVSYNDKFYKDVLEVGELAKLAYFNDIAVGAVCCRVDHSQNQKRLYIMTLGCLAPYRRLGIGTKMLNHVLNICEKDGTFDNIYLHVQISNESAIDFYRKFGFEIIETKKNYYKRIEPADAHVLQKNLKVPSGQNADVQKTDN
UniProt O00159, whole entry, looked up: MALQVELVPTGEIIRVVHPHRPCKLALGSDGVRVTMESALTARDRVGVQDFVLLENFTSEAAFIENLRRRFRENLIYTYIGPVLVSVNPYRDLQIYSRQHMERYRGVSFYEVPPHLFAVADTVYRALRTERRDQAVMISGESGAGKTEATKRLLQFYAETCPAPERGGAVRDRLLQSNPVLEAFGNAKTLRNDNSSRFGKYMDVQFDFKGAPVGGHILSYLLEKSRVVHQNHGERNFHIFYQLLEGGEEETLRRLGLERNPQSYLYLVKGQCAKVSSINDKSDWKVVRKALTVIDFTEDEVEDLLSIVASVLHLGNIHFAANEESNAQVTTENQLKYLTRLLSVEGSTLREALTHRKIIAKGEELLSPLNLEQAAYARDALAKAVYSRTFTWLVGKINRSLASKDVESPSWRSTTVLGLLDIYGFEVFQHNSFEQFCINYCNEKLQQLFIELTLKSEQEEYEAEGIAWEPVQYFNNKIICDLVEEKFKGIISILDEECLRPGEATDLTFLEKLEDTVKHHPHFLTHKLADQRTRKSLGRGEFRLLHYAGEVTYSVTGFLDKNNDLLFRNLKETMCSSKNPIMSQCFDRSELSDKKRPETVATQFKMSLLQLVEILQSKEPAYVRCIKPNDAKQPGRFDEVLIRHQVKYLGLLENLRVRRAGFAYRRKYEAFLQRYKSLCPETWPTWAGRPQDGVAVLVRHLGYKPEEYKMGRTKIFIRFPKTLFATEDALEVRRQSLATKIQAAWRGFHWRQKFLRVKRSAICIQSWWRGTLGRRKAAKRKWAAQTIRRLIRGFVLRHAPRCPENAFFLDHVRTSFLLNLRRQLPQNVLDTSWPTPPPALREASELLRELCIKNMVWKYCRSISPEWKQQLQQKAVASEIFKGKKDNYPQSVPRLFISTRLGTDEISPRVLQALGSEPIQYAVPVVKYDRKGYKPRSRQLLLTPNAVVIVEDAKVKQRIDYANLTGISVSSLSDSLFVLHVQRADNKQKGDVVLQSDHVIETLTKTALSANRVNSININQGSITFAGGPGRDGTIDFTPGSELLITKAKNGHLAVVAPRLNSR
UniProt P10242: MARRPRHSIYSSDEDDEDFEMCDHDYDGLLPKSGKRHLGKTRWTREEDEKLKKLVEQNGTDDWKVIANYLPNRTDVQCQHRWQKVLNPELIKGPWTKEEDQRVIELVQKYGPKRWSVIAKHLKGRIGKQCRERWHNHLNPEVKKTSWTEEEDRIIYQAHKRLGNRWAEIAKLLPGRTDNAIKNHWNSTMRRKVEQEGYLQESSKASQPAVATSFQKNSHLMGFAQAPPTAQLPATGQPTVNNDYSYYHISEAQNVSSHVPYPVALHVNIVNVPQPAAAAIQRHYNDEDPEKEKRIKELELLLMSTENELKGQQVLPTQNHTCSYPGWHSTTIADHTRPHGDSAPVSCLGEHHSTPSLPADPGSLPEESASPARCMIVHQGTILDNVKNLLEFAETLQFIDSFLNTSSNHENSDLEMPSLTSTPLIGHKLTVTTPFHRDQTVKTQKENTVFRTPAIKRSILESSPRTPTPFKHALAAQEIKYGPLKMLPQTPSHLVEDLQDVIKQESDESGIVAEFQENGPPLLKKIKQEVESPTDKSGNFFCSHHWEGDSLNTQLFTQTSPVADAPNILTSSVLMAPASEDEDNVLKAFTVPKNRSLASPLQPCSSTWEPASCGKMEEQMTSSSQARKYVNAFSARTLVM
UniProt Q96H55, whole entry, looked up: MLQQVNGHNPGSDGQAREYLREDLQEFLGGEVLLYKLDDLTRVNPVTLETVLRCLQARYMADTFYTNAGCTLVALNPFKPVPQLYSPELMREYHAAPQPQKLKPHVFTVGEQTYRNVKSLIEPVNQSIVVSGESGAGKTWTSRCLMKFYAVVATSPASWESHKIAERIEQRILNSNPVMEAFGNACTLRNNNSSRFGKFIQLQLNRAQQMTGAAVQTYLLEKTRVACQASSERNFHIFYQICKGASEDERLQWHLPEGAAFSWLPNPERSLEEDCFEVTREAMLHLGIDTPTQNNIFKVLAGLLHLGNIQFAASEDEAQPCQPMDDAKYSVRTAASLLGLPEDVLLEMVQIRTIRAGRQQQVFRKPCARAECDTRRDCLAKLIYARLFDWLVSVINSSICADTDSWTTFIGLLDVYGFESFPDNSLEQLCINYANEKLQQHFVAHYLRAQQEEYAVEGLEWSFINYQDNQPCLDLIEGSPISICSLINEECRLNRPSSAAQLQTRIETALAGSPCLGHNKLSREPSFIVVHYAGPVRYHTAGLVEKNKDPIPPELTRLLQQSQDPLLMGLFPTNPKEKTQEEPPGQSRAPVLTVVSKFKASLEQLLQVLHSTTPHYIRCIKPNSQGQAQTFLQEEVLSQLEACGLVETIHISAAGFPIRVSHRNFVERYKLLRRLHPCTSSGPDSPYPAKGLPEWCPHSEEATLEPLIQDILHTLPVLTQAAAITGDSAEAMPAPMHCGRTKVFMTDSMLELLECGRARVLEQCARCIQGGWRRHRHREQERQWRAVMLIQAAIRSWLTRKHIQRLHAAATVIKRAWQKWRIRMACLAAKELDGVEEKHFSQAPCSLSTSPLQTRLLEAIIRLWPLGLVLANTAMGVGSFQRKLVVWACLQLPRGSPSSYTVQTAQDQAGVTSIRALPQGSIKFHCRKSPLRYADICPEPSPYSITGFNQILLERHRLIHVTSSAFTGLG

Key:
Experiment in all cases: log2 fold change, soluble protein after heating vs DMSO (PISA); higher = thermal stabilisation; K562 lysate, 10 uM; active = over 0.2 and 3.5 SD of the protein, either way, in both replicates (recomputed)
erlotinib = compound: C#Cc1cccc(Nc2ncnc3cc(OCCOC)c(OCCOC)cc23)c1 [erlotinib]
How it was run: (§1)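 K562 pellets were dounce-homogenised in PBS pH 7.4 containing 1 mM MgCl2, and the crude extract, at 1 mg/mL protein, was exposed to 10 μM compound for 30 min. Aliquots were heated for 3 min across 48°C-58°C, pooled, brought to 0.5% NP-40 at 4°C and spun at 21,000xg for 90 min, with the supernatant taken as soluble protein. TMTpro 16plex LC-MS/MS with equalised channel sums quantified that protein. Values are log-two fold changes in thermal stability relative to solvent controls, taken from duplicates.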

[1] = compound: C/C(=N\NC(=O)C1=CC(=CC=C1)S(=O)(=O)N2CCOCC2)/C3=C(C=CC(=C3)Cl)O
How it was run: as §1

[2] = compound: C1=CC(=CC=C1C2=NC3=C(N2)C=C(C=C3)C(=O)N)OC4=CC=C(C=C4)Cl
How it was run: as §1

[3] = compound: C1=CC2=C(C=CC(=C2)/C=C\3/C(=O)NC(=NCC4=CC=CS4)S3)N=C1
How it was run: as §1

[4] = compound: C1=CC2=NC=CN=C2C=C1/C=C/3\C(=O)NC(=O)S3
How it was run: as §1

[5] = compound: C1=CC=C(C=C1)C2=NC(=C(N2)C3=CC=NC=C3)C4=CC(=C(C=C4)Cl)O
How it was run: as §1

[6] = compound: C1=CC=C2C(=C1)C3=NNC4=CC=CC(=C43)C2=O
How it was run: as §1

[7] = compound: C1CCN(C1)C(=O)NC2=CC=CC(=C2)NC3=NC=C(C(=N3)NCCC4=CN=CN4)Br
How it was run: as §1

[8] = compound: C1CN(CCC1(CC2=CC=C(C=C2)Cl)N)C3=NC=NC4=C3C=CN4
How it was run: as §1

IRAK-1-4 Inhibitor I = compound: C1COCCN1CCN2C3=CC=CC=C3N=C2NC(=O)C4=CC(=CC=C4)[N+](=O)[O-] [IRAK-1-4 Inhibitor I]
How it was run: as §1

ibrutinib = compound: C=CC(=O)N1CCC[C@@H](n2nc(-c3ccc(Oc4ccccc4)cc3)c3c(N)ncnc32)C1 [ibrutinib]
How it was run: as §1

[9] = compound: CC(=O)c1cnc2ccc(-c3cc(Cl)c(O)c(Cl)c3)nc2c1N[C@H]1CC[C@H](CN(C)C)CC1
How it was run: as §1

ralimetinib = compound: CC(C)(C)Cn1c(N)nc2ccc(-c3[nH]c(C(C)(C)C)nc3-c3ccc(F)cc3)nc21 [ralimetinib]
How it was run: as §1

[10] = compound: CC(C)(O)CC(=O)NCCn1ccc2ncnc(Nc3ccc(Oc4cccc(C(F)(F)F)c4)c(Cl)c3)c21
How it was run: as §1

[11] = compound: CC(C)C1=C2N=C(C=C(N2N=C1)NCC3=CC=CC=C3)NCCCCCCN
How it was run: as §1

[12] = compound: CC1=C(C(CC(=O)N1)C2=CC=C(C=C2)C(F)(F)F)C(=O)NC3=C(C=C4C(=C3)C=NN4)F
How it was run: as §1

[13] = compound: CC1=C(C2=C(C=C1)C(=O)C3=CC=CC=C3N2CCCN)C
How it was run: as §1

[14] = compound: CC1=C(C=C(C=C1)NC(=O)C2=CC(=CC=C2)C(C)(C)C#N)NC3=CC4=C(C=C3)N=CN(C4=O)C
How it was run: as §1

[15] = compound: CC1=C(C=C(C=C1)NC(=O)C2=CC(=CC=C2)N(C)C)NC(=O)C3=CC=C(C=C3)O
How it was run: as §1

[16] = compound: CC1=CC=C(C=C1)SC2=C3C=C(SC3=CN=C2)C(=O)N
How it was run: as §1

Measured: log2 fold change

NAXE (UniProt Q8NCW5)
inactive: erlotinib -0.028 | [1] -0.03 | [2] -0.005 | [3] 0.012 | [4] -0.038 | [5] 0.011 | [6] 0.038 | [7] -0.021 | [8] 0.046 | IRAK-1-4 Inhibitor I 0.019 | ibrutinib 0.047 | [9] 0.016 | ralimetinib 0.011 | [10] -0.011 | [11] -0.016 | [12] -0.031 | [13] -0.012 | [14] 0.011 | [15] -0.03 | [16] 0.023

NCAPG2 (UniProt Q86XI2)
inactive: erlotinib 0.023 | [1] -0.026 | [2] -0.019 | [3] 0.001 | [4] 0.006 | [5] -0.004 | [6] -0.026 | [7] 0.023 | [8] -0.016 | IRAK-1-4 Inhibitor I 0.004 | ibrutinib 0.012 | [9] -0.029 | ralimetinib 0.018 | [10] 0.006 | [11] -0.009 | [12] 0.015 | [13] 0.05 | [14] -0.017 | [15] 0.001 | [16] -0.002

NCBP1 (UniProt Q09161)
inactive: erlotinib -0.017 | [1] 0.011 | [2] -0.017 | [3] 0.009 | [4] 0.001 | [5] -0.008 | [6] -0.013 | [7] -0.014 | [8] 0.002 | IRAK-1-4 Inhibitor I 0.009 | ibrutinib -0.034 | [9] -0.001 | ralimetinib 0.039 | [10] -0.001 | [11] -0.03 | [12] -0.009 | [13] 0.005 | [14] 0.003 | [15] 0.012 | [16] 0.008

Two entries drawn at random from those above, as already listed:
NAXE (UniProt Q8NCW5)
inactive: erlotinib -0.028 | [1] -0.03 | [2] -0.005 | [3] 0.012 | [4] -0.038 | [5] 0.011 | [6] 0.038 | [7] -0.021 | [8] 0.046 | IRAK-1-4 Inhibitor I 0.019 | ibrutinib 0.047 | [9] 0.016 | ralimetinib 0.011 | [10] -0.011 | [11] -0.016 | [12] -0.031 | [13] -0.012 | [14] 0.011 | [15] -0.03 | [16] 0.023

NCAPG2 (UniProt Q86XI2)
inactive: erlotinib 0.023 | [1] -0.026 | [2] -0.019 | [3] 0.001 | [4] 0.006 | [5] -0.004 | [6] -0.026 | [7] 0.023 | [8] -0.016 | IRAK-1-4 Inhibitor I 0.004 | ibrutinib 0.012 | [9] -0.029 | ralimetinib 0.018 | [10] 0.006 | [11] -0.009 | [12] 0.015 | [13] 0.05 | [14] -0.017 | [15] 0.001 | [16] -0.002

Remaining list, next part.

MYBBP1A isoform 2 (UniProt Q9BQG0)
inactive: erlotinib 0.029 | [1] -0.021 | [2] -0.062 | [3] 0.02 | [4] -0.011 | [5] 0.022 | [6] 0.011 | [7] 0.001 | [8] 0.045 | IRAK-1-4 Inhibitor I -0.008 | ibrutinib -0.018 | [9] -0.013 | ralimetinib 0.039 | [10] -0.01 | [11] -0.019 | [12] 0.004 | [13] -0.061 | [14] -0.015 | [15] 0.023 | [16] 0.021

NCR3LG1 (UniProt Q68D85)
inactive: erlotinib -0.013 | [1] -0.042 | [2] -0.058 | [3] 0.071 | [4] 0.003 | [5] 0.009 | [6] 0.002 | [7] 0.005 | [8] 0.029 | IRAK-1-4 Inhibitor I -0.025 | ibrutinib 0.01 | [9] -0.032 | ralimetinib 0.016 | [10] 0.031 | [11] -0.014 | [12] -0.075 | [13] -0.018 | [14] -0.024 | [15] -0.034 | [16] -0.048

MYSM1 (UniProt Q5VVJ2)
inactive: erlotinib 0.039 | [1] -0.043 | [2] -0.018 | [3] 0.031 | [4] -0.025 | [5] -0.017 | [6] -0.026 | [7] -0.047 | [8] 0.009 | IRAK-1-4 Inhibitor I -0.052 | ibrutinib -0.007 | [9] 0.005 | ralimetinib -0.01 | [10] -0.019 | [11] -0.018 | [12] -0.08 | [13] -0.01 | [14] 0.028 | [15] 0.077 | [16] -0.019

NAA11 (UniProt Q9BSU3)
inactive: erlotinib -0.031 | [1] -0.021 | [2] 0.045 | [3] 0.048 | [4] -0.102 | [5] 0.031 | [6] -0.208 | [7] 0.004 | [8] 0.04 | IRAK-1-4 Inhibitor I -0.041 | ibrutinib 0.021 | [9] -0.053 | ralimetinib 0.206 | [10] 0.059 | [11] -0.007 | [12] -0.063 | [13] 0.028 | [14] -0.058 | [15] 0.007 | [16] -0.051

NAP1L1 isoform 3 (UniProt P55209)
inactive: erlotinib 0 | [1] -0.12 | [2] 0.016 | [3] -0.03 | [4] 0.07 | [5] 0.077 | [6] -0.097 | [7] -0.077 | [8] 0.014 | IRAK-1-4 Inhibitor I 0.038 | ibrutinib -0.162 | [9] 0.036 | ralimetinib 0.104 | [10] -0.101 | [11] -0.175 | [12] -0.087 | [13] 0.023 | [14] 0.099 | [15] 0.262 | [16] -0.088

NAA50 (UniProt Q9GZZ1)
inactive: erlotinib 0.024 | [1] 0.042 | [2] 0.004 | [3] 0.007 | [4] -0.004 | [5] 0.005 | [6] 0.009 | [7] 0.015 | [8] 0.023 | IRAK-1-4 Inhibitor I 0.011 | ibrutinib -0.011 | [9] -0.004 | ralimetinib -0.029 | [10] 0.007 | [11] -0.01 | [12] -0.012 | [13] 0.005 | [14] 0.009 | [15] -0.024 | [16] 0.033

MYO1C (UniProt O00159)
active: [14] -0.292
inactive: erlotinib -0.002 | [1] -0.005 | [2] 0.003 | [3] 0.017 | [4] 0.006 | [5] 0.047 | [6] -0.003 | [7] -0.021 | [8] -0.032 | IRAK-1-4 Inhibitor I -0.055 | ibrutinib 0.037 | [9] 0.031 | ralimetinib 0.075 | [10] -0.032 | [11] -0.009 | [12] -0.03 | [13] 0.017 | [15] 0.021 | [16] 0.06

NBEAL2 (UniProt Q6ZNJ1)
inactive: erlotinib 0.032 | [1] 0.011 | [2] -0.031 | [3] 0.038 | [4] 0.017 | [5] -0.004 | [6] -0.032 | [7] -0.012 | [8] 0.024 | IRAK-1-4 Inhibitor I -0.01 | ibrutinib -0.048 | [9] 0.011 | ralimetinib 0.023 | [10] -0.047 | [11] 0.003 | [12] 0.036 | [13] -0.011 | [14] 0.047 | [15] 0.06 | [16] -0.013

MYB isoform 4 (UniProt P10242)
inactive: erlotinib 0.066 | [1] 0.007 | [2] -0.053 | [3] 0.115 | [4] -0.184 | [5] 0.074 | [6] 0.236 | [7] 0.07 | [8] -0.127 | IRAK-1-4 Inhibitor I 0.011 | ibrutinib 0.003 | [9] 0.035 | ralimetinib 0.074 | [10] -0.013 | [11] 0.011 | [12] 0.07 | [13] -0.001 | [14] -0.032 | [15] -0.051 | [16] -0.036

NCK1 (UniProt P16333)
inactive: erlotinib 0.02 | [1] 0.036 | [2] 0.04 | [3] -0.007 | [4] -0.01 | [5] -0.009 | [6] -0.072 | [7] -0.024 | [8] 0.049 | IRAK-1-4 Inhibitor I 0.002 | ibrutinib 0.025 | [9] -0.029 | ralimetinib 0.003 | [10] 0.01 | [11] -0.016 | [12] 0.028 | [13] 0.002 | [14] -0.005 | [15] 0.029 | [16] 0

NCKIPSD (UniProt Q9NZQ3)
inactive: erlotinib -0.027 | [1] 0.104 | [2] -0.006 | [3] -0.072 | [4] 0.033 | [5] -0.065 | [6] 0.023 | [7] -0.008 | [8] 0.002 | IRAK-1-4 Inhibitor I -0.001 | ibrutinib -0.028 | [9] 0.009 | ralimetinib 0.026 | [10] 0.001 | [11] 0.015 | [12] -0.044 | [13] -0.008 | [14] -0.094 | [15] -0.014 | [16] -0.01

MYO19 (UniProt Q96H55)
inactive: erlotinib -0.054 | [1] -0.138 | [2] -0.025 | [3] 0.041 | [4] 0.072 | [5] -0.035 | [6] 0.044 | [7] 0.006 | [8] -0.013 | IRAK-1-4 Inhibitor I 0.012 | ibrutinib -0.027 | [9] 0.084 | ralimetinib -0.031 | [10] 0.006 | [11] -0.16 | [12] 0.038 | [13] -0.091 | [14] -0.067 | [15] 0.094 | [16] -0.086

NAA25 (UniProt Q14CX7)
inactive: erlotinib 0.007 | [1] 0.016 | [2] 0.013 | [3] 0.006 | [4] 0.022 | [5] -0.014 | [6] -0.01 | [7] -0.012 | [8] 0.016 | IRAK-1-4 Inhibitor I 0 | ibrutinib 0.014 | [9] 0.005 | ralimetinib 0.011 | [10] -0.002 | [11] -0.034 | [12] 0.008 | [13] 0.02 | [14] -0.024 | [15] 0.007 | [16] -0.004
